# Assay results published in PubChem BioAssay (EPA / NIEHS).
# The chains behind the UniProt entries cited, without tags or fusion partners. Where a name states a change or a piece, a line headed by the entry shows the natural chain unless it says otherwise.
# UniProt Q07869: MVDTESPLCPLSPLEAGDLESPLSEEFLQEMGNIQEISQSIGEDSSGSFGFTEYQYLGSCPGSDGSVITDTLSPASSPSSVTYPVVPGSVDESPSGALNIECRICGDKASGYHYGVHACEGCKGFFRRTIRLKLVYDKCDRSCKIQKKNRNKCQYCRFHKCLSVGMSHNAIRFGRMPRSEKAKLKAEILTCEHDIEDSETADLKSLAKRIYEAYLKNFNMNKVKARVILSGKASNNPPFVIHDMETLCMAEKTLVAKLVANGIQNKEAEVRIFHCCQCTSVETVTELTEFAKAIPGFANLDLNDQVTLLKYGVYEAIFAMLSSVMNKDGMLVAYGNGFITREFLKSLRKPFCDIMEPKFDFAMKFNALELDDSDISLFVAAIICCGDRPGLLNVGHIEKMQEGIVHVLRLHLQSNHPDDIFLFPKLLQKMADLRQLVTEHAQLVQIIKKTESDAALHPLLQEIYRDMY
# UniProt Q96RI1: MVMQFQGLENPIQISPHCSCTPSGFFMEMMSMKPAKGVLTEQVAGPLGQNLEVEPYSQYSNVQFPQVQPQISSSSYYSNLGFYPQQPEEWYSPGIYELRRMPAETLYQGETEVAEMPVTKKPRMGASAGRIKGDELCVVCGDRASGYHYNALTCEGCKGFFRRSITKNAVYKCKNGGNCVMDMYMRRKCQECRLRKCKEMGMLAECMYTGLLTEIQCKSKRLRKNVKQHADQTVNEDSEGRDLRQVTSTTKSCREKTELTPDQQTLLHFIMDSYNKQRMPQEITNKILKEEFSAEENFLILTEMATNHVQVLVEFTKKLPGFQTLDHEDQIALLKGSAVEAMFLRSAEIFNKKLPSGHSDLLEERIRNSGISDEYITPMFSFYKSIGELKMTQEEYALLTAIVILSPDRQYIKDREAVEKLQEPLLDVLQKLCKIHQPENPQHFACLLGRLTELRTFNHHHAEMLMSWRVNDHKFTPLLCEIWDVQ
# UniProt P10275: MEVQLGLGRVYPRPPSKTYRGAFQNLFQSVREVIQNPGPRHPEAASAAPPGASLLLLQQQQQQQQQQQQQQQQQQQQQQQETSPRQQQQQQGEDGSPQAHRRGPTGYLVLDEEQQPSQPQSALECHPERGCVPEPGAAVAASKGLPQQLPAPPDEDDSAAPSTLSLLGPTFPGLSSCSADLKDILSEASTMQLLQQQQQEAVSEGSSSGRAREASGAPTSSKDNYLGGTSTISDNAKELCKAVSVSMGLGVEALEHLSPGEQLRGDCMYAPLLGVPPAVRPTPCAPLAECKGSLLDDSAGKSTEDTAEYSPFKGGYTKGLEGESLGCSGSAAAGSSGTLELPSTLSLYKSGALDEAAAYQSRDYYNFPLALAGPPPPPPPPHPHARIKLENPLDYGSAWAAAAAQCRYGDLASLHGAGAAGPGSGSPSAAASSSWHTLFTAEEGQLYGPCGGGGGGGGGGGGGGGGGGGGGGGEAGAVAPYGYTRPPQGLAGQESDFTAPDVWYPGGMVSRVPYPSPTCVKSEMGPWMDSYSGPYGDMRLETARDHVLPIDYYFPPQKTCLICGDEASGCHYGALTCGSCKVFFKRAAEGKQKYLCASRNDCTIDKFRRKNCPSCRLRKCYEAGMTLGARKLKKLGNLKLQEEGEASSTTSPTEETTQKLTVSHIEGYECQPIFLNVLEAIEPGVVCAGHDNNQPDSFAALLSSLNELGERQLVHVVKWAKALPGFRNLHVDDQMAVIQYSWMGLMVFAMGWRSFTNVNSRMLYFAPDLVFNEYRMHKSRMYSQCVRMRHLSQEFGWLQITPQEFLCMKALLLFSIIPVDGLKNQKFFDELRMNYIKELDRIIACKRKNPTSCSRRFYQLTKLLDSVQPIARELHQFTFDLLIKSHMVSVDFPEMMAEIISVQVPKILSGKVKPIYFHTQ
# UniProt P37231: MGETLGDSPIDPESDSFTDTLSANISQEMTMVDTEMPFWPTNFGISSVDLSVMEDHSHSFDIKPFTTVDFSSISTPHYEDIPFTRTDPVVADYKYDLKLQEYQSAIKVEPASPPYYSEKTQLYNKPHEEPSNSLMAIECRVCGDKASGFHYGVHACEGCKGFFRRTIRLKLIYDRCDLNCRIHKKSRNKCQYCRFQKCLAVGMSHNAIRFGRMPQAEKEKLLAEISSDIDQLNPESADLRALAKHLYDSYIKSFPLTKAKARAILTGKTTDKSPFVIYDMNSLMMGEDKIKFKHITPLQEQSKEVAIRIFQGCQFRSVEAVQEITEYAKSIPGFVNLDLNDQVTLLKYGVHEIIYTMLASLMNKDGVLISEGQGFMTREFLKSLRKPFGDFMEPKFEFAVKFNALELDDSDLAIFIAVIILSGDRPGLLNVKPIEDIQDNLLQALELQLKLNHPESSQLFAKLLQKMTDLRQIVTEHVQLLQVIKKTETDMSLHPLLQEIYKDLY
# UniProt O75469: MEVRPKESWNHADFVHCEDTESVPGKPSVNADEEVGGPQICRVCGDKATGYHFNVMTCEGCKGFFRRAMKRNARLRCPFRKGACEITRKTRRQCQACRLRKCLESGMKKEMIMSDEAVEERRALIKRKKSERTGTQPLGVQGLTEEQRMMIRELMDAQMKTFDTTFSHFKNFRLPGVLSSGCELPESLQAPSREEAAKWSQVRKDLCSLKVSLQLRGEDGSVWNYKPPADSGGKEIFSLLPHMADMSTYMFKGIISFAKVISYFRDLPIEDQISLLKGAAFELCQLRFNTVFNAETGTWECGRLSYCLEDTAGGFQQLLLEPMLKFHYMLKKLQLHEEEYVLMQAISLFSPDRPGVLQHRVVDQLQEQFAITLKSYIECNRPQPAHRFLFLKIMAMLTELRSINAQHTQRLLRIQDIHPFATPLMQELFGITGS
# UniProt Q01717: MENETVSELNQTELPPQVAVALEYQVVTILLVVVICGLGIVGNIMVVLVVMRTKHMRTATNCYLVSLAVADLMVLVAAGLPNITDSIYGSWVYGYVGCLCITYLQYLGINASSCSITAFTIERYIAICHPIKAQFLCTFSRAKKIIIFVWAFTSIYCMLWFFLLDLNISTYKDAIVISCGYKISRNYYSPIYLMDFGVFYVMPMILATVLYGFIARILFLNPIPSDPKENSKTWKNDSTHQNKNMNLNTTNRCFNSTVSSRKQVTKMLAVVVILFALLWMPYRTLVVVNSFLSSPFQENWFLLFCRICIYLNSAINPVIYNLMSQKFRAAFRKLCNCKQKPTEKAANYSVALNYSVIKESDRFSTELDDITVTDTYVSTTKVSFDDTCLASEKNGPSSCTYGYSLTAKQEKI
# UniProt Q92731, whole entry, looked up: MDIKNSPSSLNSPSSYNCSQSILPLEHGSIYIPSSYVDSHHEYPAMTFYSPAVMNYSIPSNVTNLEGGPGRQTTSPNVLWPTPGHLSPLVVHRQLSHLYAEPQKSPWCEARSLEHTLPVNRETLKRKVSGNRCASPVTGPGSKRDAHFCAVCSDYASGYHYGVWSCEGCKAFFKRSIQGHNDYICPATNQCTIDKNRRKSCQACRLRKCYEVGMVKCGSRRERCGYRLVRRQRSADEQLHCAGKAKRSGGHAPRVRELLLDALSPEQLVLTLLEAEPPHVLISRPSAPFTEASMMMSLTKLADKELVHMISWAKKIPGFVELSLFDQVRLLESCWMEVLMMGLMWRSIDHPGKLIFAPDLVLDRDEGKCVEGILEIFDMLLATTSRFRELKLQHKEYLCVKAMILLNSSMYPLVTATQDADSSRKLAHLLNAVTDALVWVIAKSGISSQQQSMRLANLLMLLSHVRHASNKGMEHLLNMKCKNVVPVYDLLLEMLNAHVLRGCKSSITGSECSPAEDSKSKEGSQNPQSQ
# UniProt P49884, whole entry, looked up: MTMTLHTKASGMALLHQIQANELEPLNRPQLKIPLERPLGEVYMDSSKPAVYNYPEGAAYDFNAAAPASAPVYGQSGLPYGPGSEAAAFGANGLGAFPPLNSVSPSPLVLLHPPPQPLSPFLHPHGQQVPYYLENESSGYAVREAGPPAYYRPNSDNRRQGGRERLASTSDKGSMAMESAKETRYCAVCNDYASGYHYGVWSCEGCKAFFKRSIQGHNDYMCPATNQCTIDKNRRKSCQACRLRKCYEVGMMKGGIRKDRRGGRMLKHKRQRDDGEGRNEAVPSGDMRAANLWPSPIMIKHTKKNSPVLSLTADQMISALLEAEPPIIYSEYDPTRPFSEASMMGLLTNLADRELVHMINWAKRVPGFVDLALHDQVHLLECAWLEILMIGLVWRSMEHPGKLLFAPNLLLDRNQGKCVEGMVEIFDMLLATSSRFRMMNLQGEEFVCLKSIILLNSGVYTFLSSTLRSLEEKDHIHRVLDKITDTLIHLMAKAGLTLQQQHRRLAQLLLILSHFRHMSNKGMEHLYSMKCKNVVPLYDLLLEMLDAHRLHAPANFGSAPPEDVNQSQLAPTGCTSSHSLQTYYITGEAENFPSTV
# UniProt P19785, whole entry, looked up: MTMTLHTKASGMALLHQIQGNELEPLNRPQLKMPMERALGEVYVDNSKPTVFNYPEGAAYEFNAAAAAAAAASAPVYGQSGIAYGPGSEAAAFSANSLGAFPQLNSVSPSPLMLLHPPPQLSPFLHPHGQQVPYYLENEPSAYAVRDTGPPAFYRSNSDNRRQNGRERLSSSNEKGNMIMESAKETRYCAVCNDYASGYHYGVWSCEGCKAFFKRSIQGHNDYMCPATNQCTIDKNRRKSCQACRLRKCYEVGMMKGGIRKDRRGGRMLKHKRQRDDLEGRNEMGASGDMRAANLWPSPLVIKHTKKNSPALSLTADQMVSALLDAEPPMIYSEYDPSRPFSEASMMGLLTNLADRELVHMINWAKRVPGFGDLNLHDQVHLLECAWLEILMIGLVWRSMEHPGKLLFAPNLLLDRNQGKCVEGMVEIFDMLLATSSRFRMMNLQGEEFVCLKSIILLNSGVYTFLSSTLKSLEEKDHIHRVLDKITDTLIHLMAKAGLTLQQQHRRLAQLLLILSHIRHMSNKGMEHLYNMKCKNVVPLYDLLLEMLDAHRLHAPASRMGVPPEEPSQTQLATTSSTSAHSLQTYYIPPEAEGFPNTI
# UniProt P05979, whole entry, looked up: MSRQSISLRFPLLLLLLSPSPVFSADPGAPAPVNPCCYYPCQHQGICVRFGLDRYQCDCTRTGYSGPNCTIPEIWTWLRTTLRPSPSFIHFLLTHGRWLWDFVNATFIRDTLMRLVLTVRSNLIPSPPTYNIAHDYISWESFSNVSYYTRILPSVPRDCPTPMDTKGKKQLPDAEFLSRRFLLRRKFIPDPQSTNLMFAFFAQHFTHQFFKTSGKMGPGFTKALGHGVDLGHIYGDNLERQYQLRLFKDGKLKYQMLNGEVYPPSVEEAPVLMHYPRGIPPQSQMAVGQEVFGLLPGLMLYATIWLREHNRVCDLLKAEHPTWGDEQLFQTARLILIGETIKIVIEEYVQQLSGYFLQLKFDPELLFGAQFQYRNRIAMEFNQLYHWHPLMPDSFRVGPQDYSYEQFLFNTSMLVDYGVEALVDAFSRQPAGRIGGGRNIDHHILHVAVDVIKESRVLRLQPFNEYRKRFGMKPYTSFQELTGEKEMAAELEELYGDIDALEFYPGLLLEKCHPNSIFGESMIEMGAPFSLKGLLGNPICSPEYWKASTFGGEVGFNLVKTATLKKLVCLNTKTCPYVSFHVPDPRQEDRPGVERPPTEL
# UniProt P03372, whole entry, looked up: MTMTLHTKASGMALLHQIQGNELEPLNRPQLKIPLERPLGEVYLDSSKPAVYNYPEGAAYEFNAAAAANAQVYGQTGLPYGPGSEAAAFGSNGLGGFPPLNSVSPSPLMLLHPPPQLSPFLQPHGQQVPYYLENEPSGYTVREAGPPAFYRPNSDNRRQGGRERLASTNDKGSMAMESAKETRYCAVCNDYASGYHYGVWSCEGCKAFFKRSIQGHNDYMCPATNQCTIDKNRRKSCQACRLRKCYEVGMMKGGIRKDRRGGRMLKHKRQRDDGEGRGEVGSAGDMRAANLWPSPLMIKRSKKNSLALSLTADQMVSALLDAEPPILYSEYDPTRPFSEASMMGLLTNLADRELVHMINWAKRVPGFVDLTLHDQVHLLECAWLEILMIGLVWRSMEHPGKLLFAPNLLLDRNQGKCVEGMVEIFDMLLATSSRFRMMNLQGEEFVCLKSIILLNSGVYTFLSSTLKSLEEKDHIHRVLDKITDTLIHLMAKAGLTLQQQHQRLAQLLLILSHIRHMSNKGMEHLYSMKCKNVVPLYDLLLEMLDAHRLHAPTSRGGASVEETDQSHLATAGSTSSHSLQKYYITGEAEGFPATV
# The shares of active, inactive and inconclusive entries below differ from those in the screen. For some assays here: A potency beside an inconclusive call is a rough fit, not a confirmed value. Active and inactive are the calls of the source. How the source made its calls: active means hit-call score of the fitted dose curve at least 0.9, where 1 is the maximum; inconclusive means response in the unintended direction; inactive means score below 0.9.
# How the values were obtained:
# [1] = biological target: human Peroxisome Proliferator-activated Receptor alpha (PPARa), PPARA (gene 5465) (UniProt Q07869); experiment: NVS_NR_hPPARa: NovaScreen (NVS) Nuclear Receptor Binding Assay for human Peroxisome Proliferator-activated Receptor alpha (PPARa) (AID 2283359);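 further: activity means loss of TR-FRET signal versus DMSO baseline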
# How it was run: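 Loss of TR-FRET binding signal relative to DMSO was measured 1 h after chemical addition to extracted receptor protein. Chemicals were first tested in duplicate at 25 uM, and actives were followed up in concentration series.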
# [2] = biological target: Bile acid receptor (Homo sapiens) (UniProt Q96RI1); experiment: OT_FXR_FXRSRC1_0480: Odyssey Thera (OT) 8-hour HEK293T Protein-Complementation Assay for Farnesoid X receptor/SRC-1 Co-activator (AID 2283383)
# How it was run: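 Fluorescence intensity read-out, 8 h post-dose, HEK293T protein-fragment complementation; FXR bait and SRC-1 prey each linked to reporter fragments. Activity scored as signal increase over DMSO negative control.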
# [3] = biological target: Bile acid receptor (Homo sapiens) (UniProt Q96RI1); experiment: OT_FXR_FXRSRC1_1440: Odyssey Thera (OT) 24-hour HEK293T Protein-Complementation Assay for Farnesoid X receptor/SRC-1 Co-activator (AID 2283384)
# How it was run: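 Fluorescence readout, 24 h post-dose, HEK293T; FXR and SRC-1 fused to complementary reporter fragments, association reconstitutes signal. Positive-direction fit vs DMSO baseline.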
# AR (gene 367) = AR (gene 367) (UniProt P10275); experiment: ACEA_AR_agonist_80hr: ACEA Biosciences xCELLigence Real-Time Cell Analysis on Androgen Receptor Agonism for Proliferation (AID 2283783);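 further: hits increase impedance growth signal above DMSO baseline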
# How it was run: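 Eight concentrations, 1:4 serial dilution from a 100 uM final top, in biological duplicate. Impedance-based real-time growth of 22Rv1 cells after overnight baseline, recorded hourly and read at 80 hours. Controls: testosterone, MG132, assay media.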
# [4] = biological target: Peroxisome proliferator-activated receptor gamma (Homo sapiens) (UniProt P37231); experiment: NVS_NR_hPPARg: NovaScreen (NVS) Nuclear Receptor Binding Assay for human Peroxisome Proliferator-activated Receptor gamma (PPARg) (AID 2283370)
# How it was run: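 Extracted receptor protein, cell-free; compound incubated 2 h then fluorescence polarization read. Baseline: DMSO. Actives from 25 uM duplicate screen re-run across concentrations.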
# [5] = ACEA_AR_antagonist_AUC_viability: ACEA Biosciences xCELLigence Real-Time Cell Analysis on Androgen Receptor Antagonism for Viability (AID 2283776);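 further: 22Rv1 human prostate cancer cells growing on impedance electrode plates; area under impedance growth curve at 80 h after dosing as viability; hits lower the growth signal relative to DMSO meaning cytotoxicity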
# How it was run: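 Viability endpoint from label-free cell-index monitoring: 22Rv1 cultures treated with an eight-point 1:4 dilution series starting at 100 uM final, AUC at 80 h fitted against DMSO.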
# [6] = Tanguay_ZF_120hpf_TR_legacy: (Legacy) Oregon State University Tanguay Lab 120 Hour Post-fertilization zebrafish Assay for Touch Response (AID 2283667)
# How it was run: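 Binary touch-response endpoint in larvae at 120 hpf after static waterborne exposure from embryo stage (28°C, 0.64% DMSO vehicle, 5 uM trimethyltin chloride as positive control); embryos dead at 24 or 120 hpf excluded; fitted as gain versus DMSO.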
# [7] = biological target: Nuclear receptor subfamily 1 group I member 2 (Homo sapiens) (UniProt O75469); experiment: NVS_NR_hPXR: NovaScreen (NVS) Nuclear Receptor Binding Assay for human Pregnane X Receptor (PXR) (AID 2283365);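 further: a drop in FRET signal versus DMSO baseline means the compound binds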
# How it was run: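 Read-out: TR-FRET, human PXR, 2 h post-dosing, cell-free. Loss of signal vs DMSO taken as binding activity; 25 uM primary, concentration series secondary.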
# [8] = biological target: Nucleoli Translocation, AR (gene 367) (UniProt P10275); experiment: UPITT_HCI_U2OS_AR_TIF2_Nucleoli_Agonist: University of Pittsburgh U2OS Androgen Receptor-Transcriptional Intermediary Factor 2 (AR-TIF2) Agonism High Content Imaging Assay for Nucleoli Translocation (AID 2283998)
# How it was run: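 High-content images quantify nucleolar accumulation of RFP-fused AR in cells also expressing GFP-TIF2; the endpoint is fitted as signal gain versus DMSO controls across final concentrations of 0.195 to 50 uM.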
# [9] = biological target: rat Thyrotropin Releasing Hormone Receptor (TRH), Trhr (gene 25570) (UniProt Q01717); experiment: NVS_GPCR_rTRH: NovaScreen (NVS) G Protein-Coupled Receptor Assay for rat Thyrotropin Releasing Hormone Receptor (TRH) (AID 2283329);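 further: hit means lower bound tracer signal versus DMSO baseline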
# How it was run: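 Test compounds are screened at 25 uM in duplicate against radioligand binding in rat forebrain membranes, with active pairs followed up over a concentration range. Detection uses filter-based radiodetection after a 4 h exposure.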
# [10] = CCTE_Shafer_MEA_acute_AB: CCTE's Alamar Blue Assay for Cytotoxicity in the Neural Acute Assay, Shafer Lab (AID 2284069);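 further: active compounds lower the viability signal compared with DMSO wells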
# How it was run: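 Cytotoxicity endpoint for acute MEA exposures of primary rat cortical neurons on day 13 or 15. Resazurin reduction is read fluorescently at 544/590 nm, with DMSO as the negative-control baseline.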
# [11] = CCTE_Deisenroth_AIME_384WELL_CTox_Inactive: Cytotoxicity Assessment (CTOX) in CCTE's 384-well Estrogen Receptor Transactivation Assay without AIME metabolic competence (metabolism negative), Deisenroth Lab (AID 2284039);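 further: cell viability via live-cell protease substrate cleaved to fluorescent probe; cells exposed 24 h to medium preincubated 2 h with alginate-water beads without S9; loss of fluorescence signal means loss of viability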
# How it was run: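 Fluorescence from a live-cell protease substrate, read after 24 h in VM7Luc4E2 cells, indicated viability. Test medium came from a 2 h AIME step without hepatic S9 (alginate-water microspheres); concentrations spanned 0.002 - 200 uM, single technical replicate per run.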
# [12] = biological target: Estrogen receptor beta (Homo sapiens) (UniProt Q92731); experiment: OT_ER_ERbERb_0480: Odyssey Thera (OT) 8-hour HEK293T Protein-Complementation Assay for Estrogen Receptor-beta/-beta Homodimer (AID 2283357);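 further: active means signal gain over DMSO baseline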
# How it was run: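 ER-beta LBD homodimer PCA stably expressed in HEK293T; 8 h compound exposure, then formaldehyde fixation and Draq5 staining. Gain in nuclear/cytoplasmic fluorescence intensity versus DMSO vehicle, read on laser scanning cytometer.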
# [13] = biological target: bovine Estrogen Receptor (ER), ESR1 (gene 407238) (UniProt P49884); experiment: NVS_NR_bER: NovaScreen (NVS) Nuclear Receptor Binding Assay for bovine Estrogen Receptor (ER) (AID 2283345);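 further: actives lower the bound radioligand count which means they displace the ER ligand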
# How it was run: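 Bovine uterine membranes; tritiated or iodinated radioligand; competitive displacement; 18 h; scintillation read; DMSO negative control; 25 uM duplicates, then concentration series for actives.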
# [14] = biological target: mouse Estrogen Receptor alpha (Era), Esr1 (gene 13982) (UniProt P19785); experiment: NVS_NR_mERa: NovaScreen (NVS) Nuclear Receptor Binding Assay for mouse Estrogen Receptor alpha (Era) (AID 2283378);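 further: hit means loss of bound radioligand signal relative to DMSO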
# How it was run: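 Measurements come from scintillation counting after filtration, taken 18 hours after chemicals were added to a cell-free mouse Era preparation with radioligand. Screening was duplicate at 25 uM, with concurrent positive and negative controls and confirmatory concentration series for actives.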
# [15] = biological target: sheep Cyclooxygenase-1 (Cox1), PTGS1 (gene 443551) (UniProt P05979); experiment: NVS_ENZ_oCOX1: NovaScreen (NVS) Enzymatic Assay for sheep Cyclooxygenase-1 (Cox1) (AID 2283239);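 further: actives reduce cyclooxygenase activity so potencies are for inhibitors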
# How it was run: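 Tested in duplicate at 25 uM, then in concentration series if active, against seminal vesicle extract from sheep. Enzyme activity was measured colorimetrically at 0.66 hour and normalised to DMSO.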
# [16] = Tanguay_ZF_120hpf_PFIN_legacy: (Legacy) Oregon State University Tanguay Lab 120 Hour Post-fertilization zebrafish Assay for Pectoral Fin Malformation (AID 2283648);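 further: each larva judged yes or no for fin defect by brightfield with dead larvae skipped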
# How it was run: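 Pectoral fin malformation was recorded as a binary endpoint at 120 hpf in wild-type Tropical 5D larvae, which had been dechorionated and exposed statically from 6 hpf at 28C in 0.64% DMSO. Dead embryos were excluded.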
# [17] = biological target: Estrogen receptor (Homo sapiens) (UniProt P03372); experiment: NVS_NR_hER: NovaScreen (NVS) Nuclear Receptor Binding Assay for human Estrogen Receptor (ER) (AID 2283348)
# How it was run: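 Cell-free MCF7-derived ER preparation, specific radioligand displaced by test compound, read by scintillation counting 18 h post-dosing. Duplicate single-point 25 uM screen, then concentration-response confirmation; DMSO baseline.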
structure (smiles),measurement,setting,value
O=C(NO)C1(NS(=O)(=O)c2ccc(Oc3ccc(F)cc3)cc2)CCOCC1,AC50,[1],inconclusive: 0.465 µM
O=C(O)CCCCCCCCC(=O)O,AC50,[2],inconclusive: 27.3 µM
same,AC50,[3],inconclusive: 23.6 µM
c1ccc2[nH]ccc2c1,AC50,AR (gene 367),inconclusive: 4.48 µM
Cc1cc(S(=O)(=O)O)ccc1N=Nc1c(O)ccc2ccccc12,AC50,[4],inconclusive: 25 µM
same,AC50,[2],inconclusive: 50 µM
same,outcome,[3],inactive
same,AC50,[5],inconclusive: 0.418 µM
CC1=CC(=O)CC(C)(C)C1,AC50,[6],inconclusive: 202 µM
same,outcome,[5],inactive
Cc1ccc(S(=O)(=O)Oc2ccc(N=Nc3ccc(-c4ccc(N=Nc5c(O)ccc6cc(S(=O)(=O)O)cc(S(=O)(=O)O)c56)c(C)c4)cc3C)cc2)cc1,AC50,[7],active: 0.701 µM
same,AC50,[2],inconclusive: 7.26 µM
same,AC50,AR (gene 367),inconclusive: 11.7 µM
same,outcome,[8],inactive
CC(C)CC(=O)CC(C)C,AC50,[5],inconclusive: 31.6 µM
CCCO[Si](OCCC)(OCCC)OCCC,AC50,[9],inconclusive: 25 µM
same,outcome,[4],inactive
same,AC50,[10],inconclusive: 2.65 µM
Oc1ccc2cc(SSc3ccc4cc(O)ccc4c3)ccc2c1,AC50,[9],inconclusive: 25 µM
same,outcome,[7],inactive
same,outcome,[4],inactive
same,AC50,[2],inconclusive: 1.13 µM
same,AC50,[5],inconclusive: 4.28 µM
same,outcome,[11],inactive
COc1cc(C=O)ccc1OC(=O)C(C)C,AC50,[10],inconclusive: 2.98 µM
OC[C@H]1O[C@@H]2O[C@H]3[C@H](O)[C@@H](O)[C@@H](O[C@H]4[C@H](O)[C@@H](O)[C@@H](O[C@H]5[C@H](O)[C@@H](O)[C@@H](O[C@H]6[C@H](O)[C@@H](O)[C@@H](O[C@H]7[C@H](O)[C@@H](O)[C@@H](O[C@H]8[C@H](O)[C@@H](O)[C@@H](O[C@H]9[C@H](O)[C@@H](O)[C@@H](O[C@H]1[C@H](O)[C@H]2O)O[C@@H]9CO)O[C@@H]8CO)O[C@@H]7CO)O[C@@H]6CO)O[C@@H]5CO)O[C@@H]4CO)O[C@@H]3CO,outcome,[12],inactive
CCCCC(CC)COC(C)=O (configuration not stated),outcome,[12],inactive
same,AC50,[11],inconclusive: 0.00946 µM
O=C(CC(=O)c1ccccc1)c1ccccc1,outcome,[11],inactive
CC(C)c1ccc2c(c1)CC[C@H]1[C@](C)(CN)CCC[C@]21C,AC50,[13],inconclusive: 25 µM
same,outcome,[14],inactive
CCc1cc(SCc2sc(-c3ccc(C(F)(F)F)cc3)nc2CN2CCN(c3ccc(OC)cc3)CC2)ccc1OCC(=O)O,outcome,[15],inactive
same,AC50,[12],inconclusive: 50 µM
same,AC50,[1],active: 0.00361 µM
same,AC50,[4],active: 7.42 µM
same,AC50,[16],inconclusive: 4.45 µM
CC/C=C\CCO,AC50,[2],inconclusive: 5.26 µM
CC(=O)OCc1ccc2c(c1)OCO2,outcome,[15],inactive
CCCCC(CC)COC(=O)c1ccccc1C(=O)O (configuration not stated),AC50,[13],inconclusive: 6.78 µM
same,AC50,[16],inconclusive: 3.82 µM
same,AC50,[6],inconclusive: 106 µM
CN(C)Cc1ccccc1O,AC50,[9],inconclusive: 14.6 µM
same,AC50,[13],inconclusive: 6.46 µM
same,outcome,[17],inactive
same,AC50,[14],inconclusive: 25 µM
same,AC50,[2],inconclusive: 2.23 µM
same,outcome,AR (gene 367),inactive

# 2 records drawn at random from the list so far:
structure (smiles),measurement,setting,value
CCCCC(CC)COC(=O)c1ccccc1C(=O)O (configuration not stated),AC50,[6],inconclusive: 106 µM
CC(=O)OCc1ccc2c(c1)OCO2,outcome,[15],inactive
